The record followed here is article PMC11670450.

The chains behind the UniProt entries cited, without tags or fusion partners. Residues count along the entry.
UniProt P05106, residues 27-788: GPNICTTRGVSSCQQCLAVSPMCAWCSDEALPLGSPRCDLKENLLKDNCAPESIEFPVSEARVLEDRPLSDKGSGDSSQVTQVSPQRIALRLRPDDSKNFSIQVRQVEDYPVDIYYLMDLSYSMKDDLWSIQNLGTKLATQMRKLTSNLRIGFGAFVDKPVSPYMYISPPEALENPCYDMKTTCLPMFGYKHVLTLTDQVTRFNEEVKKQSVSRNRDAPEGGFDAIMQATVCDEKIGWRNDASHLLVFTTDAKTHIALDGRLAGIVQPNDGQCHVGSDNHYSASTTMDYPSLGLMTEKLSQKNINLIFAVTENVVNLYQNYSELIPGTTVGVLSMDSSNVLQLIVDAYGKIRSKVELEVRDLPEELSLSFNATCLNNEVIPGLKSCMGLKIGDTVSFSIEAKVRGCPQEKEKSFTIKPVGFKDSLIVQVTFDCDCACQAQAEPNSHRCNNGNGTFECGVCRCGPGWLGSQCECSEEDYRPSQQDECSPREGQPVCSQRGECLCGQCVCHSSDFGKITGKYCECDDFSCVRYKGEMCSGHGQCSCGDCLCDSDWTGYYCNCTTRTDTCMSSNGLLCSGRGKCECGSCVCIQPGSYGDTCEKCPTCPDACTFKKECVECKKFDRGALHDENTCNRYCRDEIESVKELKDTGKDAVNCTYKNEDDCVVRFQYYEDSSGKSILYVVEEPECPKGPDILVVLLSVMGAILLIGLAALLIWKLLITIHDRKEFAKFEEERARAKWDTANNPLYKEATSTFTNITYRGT

B1: Arginase-1 (protein, UniProt P05089 1-322)
chain: MSAKSRTIGIIGAPFSKGQPRGGVEEGPTVLRKAGLLEKLKEQECDVKDYGDLPFADIPNDSPFQIVKNPRSVGKASEQLAGKVAEVKKNGRISLVLGGDHSLAIGSISGHARVHPDLGVIWVDAHTDINTPLTTTSGNLHGQPVSFLLKELKGKIPDVPGFSWVTPCISAKDIVYIGLRDVDPGEHYILKTLGIKYFSMTEVDRLGIGKVMEETLSYLLGRKKRPIHLSFDVDGLDPSFTPATGTPVVGGLTYREGLYITEEIYKTGLLSGLDIMEVNPSLGKTPEEVTRTVNTAVAITLACFGLAREGNHKPIDYLNPPK
B2: Peroxiredoxin-1 (protein, UniProt Q06830 1-199)
chain: MSSGNAKIGHPAPNFKATAVMPDGQFKDISLSDYKGKYVVFFFYPLDFTFVCPTEIIAFSDRAEEFKKLNCQVIGASVDSHFCHLAWVNTPKKQGGLGPMNIPLVSDPKRTIAQDYGVLKADEGISFRGLFIIDDKGILRQITVNDLPVGRSVDETLRLVQAFQFTDKHGEVCPAGWKPGSDTIKPDVQKSKEYFSKQK
B3: Catalase (protein, UniProt P04040 1-527)
chain: MADSRDPASDQMQHWKEQRAAQKADVLTTGAGNPVGDKLNVITVGPRGPLLVQDVVFTDEMAHFDRERIPERVVHAKGAGAFGYFEVTHDITKYSKAKVFEHIGKKTPIAVRFSTVAGESGSADTVRDPRGFAVKFYTEDGNWDLVGNNTPIFFIRDPILFPSFIHSQKRNPQTHLKDPDMVWDFWSLRPESLHQVSFLFSDRGIPDGHRHMNGYGSHTFKLVNANGEAVYCKFHYKTDQGIKNLSVEDAARLSQEDPDYGIRDLFNAIATGKYPSWTFYIQVMTFNQAETFPFNPFDLTKVWPHKDYPLIPVGKLVLNRNPVNYFAEVEQIAFDPSNMPPGIEASPDKMLQGRLFAYPDTHRHRLGPNYLHIPVNCPYRARVANYQRDGPMCMQDNQGGAPNYYPNSFGAPEQQPSALEHSIQYSGEVRRFNTANDDNVTQVRAFYVNVLNEEQRKRLCENIAGHLKDAQIFIQKKAVKNFTEVHPDYGSHIQALLDKYNAEKPKNAIHTFVQSGSHLAAREKANL
B4: Junctional protein associated with coronary artery disease (protein, UniProt Q9P266 1-1359)
chain: MYSVEDLLISHGYKLSRDPPASREDNPKGRQAARTGTRAGQGLQNGHEDGPAALAHRKTSAGKGHVSDSESRRSTPRGHGEPQSTSASRTSEAGFCNQPPSAWSSHPPTGNDQAYRRRGRQEARSQKPREHENLEARGMAQAHSLPVHVREGPWEVGGRSEHVMKKPVWEEELRMSGPAKWQNVSLESWNQPRKLGRQMSDGDGERLFQDLYPFIQGEHVLNSQNKGKSRSLPRVLSPESLSCTEIPIPLNERHSPKMPPYPPTCAPNLDSTRNSEKSGCSAPFPRPKFGRPLKPPSYSSHQQSRGGADSSDSQDSQQMDAYVPRHELCLSDPGLEPPVYVPPPSYRSPPQNIPNPYLEDTVPINVCGGHSQQQSPTEKAGASGQPPSGPPGTGNEYGVSPRLPQGLPAHPRPVTAYDGFVQYIPFDDPRLRHFKLAQPQGFCEDIKLDDKSYNSSPVTAQEPAHGGMQPDGAIWNPQSLIPPSGDERGLVLADSSPRWLWGQPPGDGENSGLPNQRDRCVARGQWPDVRGSQHGHTGRQVSSPYSQGESTCETQTKLKKFQTGTRTKKSSKKKMNETIFCLVSIPVKSESHLPDRDMDNNDLKPSADQKNGSDKSPALQEQSLLSMSSTDLELQALTGSMGGRTEFQKQDLGEPEEDRQTNDLSFIHLTKHRELKHSGSWPGHRYRDQQTQTSFSEEPQSSQLLPGAKLGGPSRAALSPKCSDPAASEAQTHTAFPTGDHKQRPSARNLKGHRSLSPSSNSAFSRTSLSVDQAPTPKAGRSQPCVDVHGLGAHPGPKREVVKGEPTGPCNSKQLFGQFLLKPVSRRPWDLISQLESFNKELQEEEESSSSSSSSSSSSEESEAEPQQENRAHCRQEDVGFRGNSPEMRVEPQPRMWVPESPVCRSGRGESKSESWSEELQPGHPRAWPPSPGRFRVEEGGGAPFCSADGSTSAEKRHLEVSNGMDELAGSPFPVTRMSSRSSDAKPLPASYPAEPREPQESPKITSAFSSVKPSEAVPRKFDSGGERGAGLPLSLSNKNRGLSAPDLRSVGLTPGQEQGASELEGSLGEASTIEIPPGESLQARAARILGIEVAVESLLPGIRRAGQNQPAEPDASACTPESPQEELLSRPAPADVPRVSTDAFYGRRKCGWTKSPLFVGDRDSARRAPQAFEHSDVDGVVTSTDPVPEPEPSPLESKFFEQKDVETKPPFRSTLFHFVERTPSVAGSEKRLRSPSKVIESLQEKLASPPRRADPDRLMRMKEVSSVSRMRVLSFRNADSQEDAEELKATTRGQAGLPGGLVSPGSGDRAQRLGHSLSVSKDSISREEKEHPAAQKEKSMDQDFWCPDSYDPSRVERV
B5: Conserved oligomeric Golgi complex subunit 7 (protein, UniProt P83436 1-770)
chain: MDFSKFLADDFDVKEWINAAFRAGSKEAASGKADGHAATLVMKLQLFIQEVNHAVEETSHQALQNMPKVLRDVEALKQEASFLKEQMILVKEDIKKFEQDTSQSMQVLVEIDQVKSRMQLAAESLQEADKWSTLSADIEETFKTQDIAVISAKLTGMQNSLMMLVDTPDYSEKCVHLEALKNRLEALASPQIVAAFTSQAVDQSKVFVKVFTEIDRMPQLLAYYYKCHKVQLLAAWQELCQSDLSLDRQLTGLYDALLGAWHTQIQWATQVFQKPHEVVMVLLIQTLGALMPSLPSCLSNGVERAGPEQELTRLLEFYDATAHFAKGLEMALLPHLHEHNLVKVTELVDAVYDPYKPYQLKYGDMEESNLLIQMSAVPLEHGEVIDCVQELSHSVNKLFGLASAAVDRCVRFTNGLGTCGLLSALKSLFAKYVSDFTSTLQSIRKKCKLDHIPPNSLFQEDWTAFQNSIRIIATCGELLRHCGDFEQQLANRILSTAGKYLSDSCSPRSLAGFQESILTDKKNSAKNPWQEYNYLQKDNPAEYASLMEILYTLKEKGSSNHNLLAAPRAALTRLNQQAHQLAFDSVFLRIKQQLLLISKMDSWNTAGIGETLTDELPAFSLTPLEYISNIGQYIMSLPLNLEPFVTQEDSALELALHAGKLPFPPEQGDELPELDNMADNWLGSIARATMQTYCDAILQIPELSPHSAKQLATDIDYLINVMDALGLQPSRTLQHIVTLLKTRPEDYRQVSKGLPRRLATTVATMRSVNY
B6: Protein FAM171B (protein, UniProt Q6P995 33-826)
chain: ELSRSDLSLIQQQQQQQQQQQQQQKQLEEAEEERTEVPGATSTLTVPVSVFMLKVQVNDIISRQYLSQAVVEVFVNYTKTNSTVTKSNGAVLIKVPYKLGLSLTIIAYKDGYVLTPLPWKTRRMPIYSSVTLSLFPQSQANIWLFEDTVLITGKLADAKSQPSVQFSKALIKLPDNHHISNVTGYLTVLQQFLKVDNFLHTTGITLNKPGFENIELTPLAAICVKIYSGGKELKVNGSIQVSLPLLRLNDISAGDRIPAWTFDMNTGAWVNHGRGMVKEHNNHLIWTYDAPHLGYWIAAPLPGTRGSGINEDSKDITAYHTVFLTAILGGTIVIVIGFFAVLLCYCRDKCGTPQKRERNITKLEVLKRDQTTSTTHINHISTVKVALKAEDKSQLFNAKNSSYSPQKKEPSKAETEERVSMVKTRDDFKIYNEDVSFLSVNQNNYSRNPTQSLEPNVGSKQPKHINNNLSSSLGDAQDEKRYLTGNEEAYGRSHIPEQLMHIYSQPIAILQTSDLFSTPEQLHTAKSATLPRKGQLVYGQLMEPVNRENFTQTLPKMPIHSHAQPPDAREEDIILEGQQSLPSQASDWSRYSSSLLESVSVPGTLNEAVVMTPFSSELQGISEQTLLELSKGKPSPHPRAWFVSLDGKPVAQVRHSFIDLKKGKRTQSNDTSLDSGVDMNELHSSRKLEREKTFIKSMHQPKILYLEDLDLSSSESGTTVCSPEDPALRHILDGGSGVIMEHPGEESPGRKSTVEDFEANTSPTKRRGRPPLAKRDSKTNIWKKREERPLIPIN
B7: Corneodesmosin (protein, UniProt Q15517 33-529)
chain: KSIGTFSDPCKDPTRITSPNDPCLTGKGDSSGFSSYSGSSSSGSSISSARSSGGGSSGSSSGSSIAQGGSAGSFKPGTGYSQVSYSSGSGSSLQGASGSSQLGSSSSHSGNSGSHSGSSSSHSSSSSSFQFSSSSFQVGNGSALPTNDNSYRGILNPSQPGQSSSSSQTFGVSSSGQSVSSNQRPCSSDIPDSPCSGGPIVSHSGPYIPSSHSVSGGQRPVVVVVDQHGSGAPGVVQGPPCSNGGLPGKPCPPITSVDKSYGGYEVVGGSSDSYLVPGMTYSKGKIYPVGYFTKENPVKGSPGVPSFAAGPPISEGKYFSSNPIIPSQSAASSAIAFQPVGTGGVQLCGGGSTGSKGPCSPSSSRVPSSSSISSSSGLPYHPCGSASQSPCSPPGTGSFSSSSSSQSSGKIILQPCGSKSSSSGHPCMSVSSLTLTGGPDGSPHPDPSAGAKPCGSSSAGKIPCRSIRDILAQVKPLGPQLADPEVFLPQGELLNSP
B8: Keratin, type II cytoskeletal 1b (protein, UniProt Q7Z794 1-578)
chain: MSHQFSSQSAFSSMSRRVYSTSSSAGSGGGSPAVGSVCYARGRCGGGGYGIHGRGFGSRSLYNLGGSRSISINLMGRSTSGFCQGGGVGGFGGGRGFGVGSTGAGGFGGGGFGGAGFGTSNFGLGGFGPYCPPGGIQEVTINQSLLEPLHLEVDPEIQRIKTQEREQIMVLNNKFASFIDKVRFLEQQNQVLQTKWELLQQVNTSTGTNNLEPLLENYIGDLRRQVDLLSAEQMRQNAEVRSMQDVVEDYKSKYEDEINKRTGSENDFVVLKKDVDAAYVSKVDLESRVDTLTGEVNFLKYLFLTELSQVQTHISDTNVILSMDNNRSLDLDSIIDAVRTQYELIAQRSKDEAEALYQTKYQELQITAGRHGDDLKNSKMEIAELNRTVQRLQAEISNVKKQIEQMQSLISDAEERGEQALQDAWQKLQDLEEALQQSKEELARLLRDYQAMLGVKLSLDVEIATYRQLLEGEESRMSGELQSHVSISVQNSQVSVNGGAGGGGSYGSGGYGGGSGGGYGGGRSYRGGGARGRSGGGYGSGCGGGGGSYGGSGRSGRGSSRVQIIQTSTNTSHRRILE
B9: Exonuclease V (protein, UniProt Q9H790 1-373)
chain: MAETREEETVSAEASGFSDLSDSEFLEFLDLEDAQESKALVNMPGPSSESLGKDDKPISLQNWKRGLDILSPMERFHLKYLYVTDLATQNWCELQTAYGKELPGFLAPEKAAVLDTGASIHLARELELHDLVTVPVTTKEDAWAIKFLNILLLIPTLQSEGHIREFPVFGEGEGVLLVGVIDELHYTAKGELELAELKTRRRPMLPLEAQKKKDCFQVSLYKYIFDAMVQGKVTPASLIHHTKLCLEKPLGPSVLRHAQQGGFSVKSLGDLMELVFLSLTLSDLPVIDILKIEYIHQETATVLGTEIVAFKEKEVRAKVQHYMAYWMGHREPQGVDVEEAWKCRTCTYADICEWRKGSGVLSSTLAPQVKKAK
B10: Uncharacterized protein encoded by LINC02872 (protein, UniProt A2RU37 1-121)
chain: MWSRRGLGVSRAPLHLLLGVWGPSGRTGGQRKGASLARPGRGGLASCSVGANGKRDVLFLRKTLTNTVEDIQIDNFRRKSDLGVGSPDWKNLLIDVTREDHENSQNNSKRRCKVNCETDQR

Results are given in words; binding and its absence hold for the method and conditions named. In cells and extracts the contact can be indirect. These calls come from enrichment with a bait or labelling near it, and not all partners need be listed.

For the assay, the target named is Integrin beta-3 (human (endogenous in HTR-8/SVneo)) (UniProt P05106). Nature of the assay: affinity purification with mass spectrometry; HTR-8/SVneo cell lysate incubated with anti-ITGB3 antibody or nonimmune IgG at 4 °C overnight, protein A/G beads, washes in TBS with 0.05% Tween-20, glycine pH 2.7 elution; SDS-PAGE, silver stain, in-gel digest of the enriched band, LC-MS/MS; proteins specific to the ITGB3 group, abundance threshold > 20.
For B1, the binding entry is on record as “binds”. Turning to B2, the binding entry was “binds”. With B3 the entry was “binds”.

Consider B4, for which the binding result is given as “binds”.

For B5, the binding result is recorded as “binds”.

For B6, the binding entry is on record as “binds”. Consider B7, for which the binding entry is “binds”.

For the molecule B8, the binding result is on record as “binds”. The value for B9 was “binds”; that for B10 was “binds”.
